Reference: patent US20250154171A1, “RAS INHIBITORS” (Revolution Medicines, Inc., priority 2023, published 2025)
Some results were stated once for a whole list of compounds, not compound by compound.

By UniProt entry, the sequences of proteins in these tests, tags left out. Where a name states a change or a piece, a line headed by the entry shows the natural chain unless it says otherwise. Residues count along the entry.
UniProt P01116, 1-188 isoform P01116-2 G12V: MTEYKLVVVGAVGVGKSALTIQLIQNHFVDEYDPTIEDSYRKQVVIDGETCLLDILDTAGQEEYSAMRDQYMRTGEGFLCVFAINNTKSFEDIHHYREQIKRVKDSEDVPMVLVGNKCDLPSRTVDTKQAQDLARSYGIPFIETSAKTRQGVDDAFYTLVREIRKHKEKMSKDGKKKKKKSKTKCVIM
UniProt P01116, 1-188 isoform P01116-2 G12A: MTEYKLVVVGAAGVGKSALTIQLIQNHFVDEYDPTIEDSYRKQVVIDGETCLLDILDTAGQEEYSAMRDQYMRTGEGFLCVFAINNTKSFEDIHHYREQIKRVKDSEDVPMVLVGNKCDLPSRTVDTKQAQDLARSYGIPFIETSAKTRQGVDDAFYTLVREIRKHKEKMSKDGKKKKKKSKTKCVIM
UniProt P62937, whole entry: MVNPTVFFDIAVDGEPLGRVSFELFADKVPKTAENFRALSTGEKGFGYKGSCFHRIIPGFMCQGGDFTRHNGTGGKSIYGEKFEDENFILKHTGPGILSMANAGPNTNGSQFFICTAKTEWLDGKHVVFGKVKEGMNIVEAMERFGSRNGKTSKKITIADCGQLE

Columns and labels:
Capan-1 (K-Ras G12V) = test: CellTiter-Glo cell viability assay, Capan-1; assay type: cell-based, human; settings: 5-day treatment, Capan-1 and/or NCI-H2009 versus A375
K-RasG12V = K-RasG12V (Homo sapiens, UniProt P01116+P62937, G12V); test: Disruption of BRAF RBD interaction with K-Ras (TR-FRET / MOA assay), K-RasG12V; assay type: biochemical; settings: TR-FRET with cyclophilin A and GST-BRAF RBD, read-out: IC50 with respect to K-RasG12V (disruption of BRAF RBD interaction)
K-RasG12A = K-RasG12A (Homo sapiens, UniProt P01116+P62937, G12A); test: Disruption of BRAF RBD interaction with K-Ras (TR-FRET / MOA assay), K-RasG12A; assay type: biochemical; settings: TR-FRET with cyclophilin A and GST-BRAF RBD, read-out: IC50 with respect to K-RasG12A (disruption of BRAF RBD interaction)

| Compound | IC50 (K-RasG12V) [nM] | IC50 (K-RasG12A) [nM] | decrease in cell viability with respect to Capan-1 and/or NCI-H2009 versus wild-type KRAS (A375) (Capan-1 (K-Ras G12V)) |
| --- | --- | --- | --- |
| C[C@@H]1[C@H](C)[C@H]1C(=O)N[C@@H]1C(=O)N2CCC[C@H](N2)C(=O)OCC(C)(C)Cc2c(-c3cccnc3)n([C@H]3CC[C@H](C#N)C3)c3ccc(cc23)-c2csc(n2)[C@H]1N1CC2(CCCN2C)C1 [Example A933] | < 1000 | < 1000 | greater decrease in cell viability |
| CO[C@@H](C)c1ncccc1-c1c2c3cc(ccc3n1C1CN(C3CC3)C1)-c1csc(n1)[C@@H](N1CC3(CCCN3C)C1)[C@H](NC(=O)C13CC(C1)[C@@H](C)O3)C(=O)N1CCC[C@H](N1)C(=O)OCC(C)(C)C2 [Example A940] | < 1000 | < 1000 | greater decrease in cell viability |
| CO[C@@H](C)c1ncccc1-c1c2c3cc(ccc3n1C1CN(C3CC3)C1)-c1csc(n1)[C@@H](N1CC3(CCCN3C)C1)[C@H](NC(=O)C13CC(C1)[C@H](C)O3)C(=O)N1CCC[C@H](N1)C(=O)OCC(C)(C)C2 [Example A941] | < 1000 | < 1000 | greater decrease in cell viability |
| C[C@@H]1[C@@H](C(=O)N[C@@H]2C(=O)N3CCC[C@H](N3)C(=O)OCC(C)(C)Cc3c(-c4cccnc4)n([C@H]4CC[C@H](C#N)C4)c4ccc(cc34)-c3coc(n3)[C@H]2N2CC3(CCCN3)C2)[C@@H]1c1ccncn1 [Example A958] | < 1000 | < 1000 | greater decrease in cell viability |
| C[C@@H]1[C@@H](C(=O)N[C@@H]2C(=O)N3CCC[C@H](N3)C(=O)OCC(C)(C)Cc3c(-c4cccnc4)n([C@@H]4CC[C@@H](C#N)C4)c4ccc(cc34)-c3coc(n3)[C@H]2N2CC3(CCCN3)C2)[C@@H]1c1ccncn1 [Example A959] | < 1000 | < 1000 | greater decrease in cell viability |
| C[C@@H]1[C@H](C)[C@H]1C(=O)N[C@@H]1C(=O)N2CCC[C@H](N2)C(=O)OCC(C)(C)Cc2c(-c3cccnc3)n([C@@H]3CC[C@@H](C#N)C3)c3ccc(cc23)-c2csc(n2)[C@H]1N1CC2(CCCN2)C1 [Example A961] | < 1000 | < 1000 | greater decrease in cell viability |
| C[C@@H]1[C@@H](C(=O)N[C@@H]2C(=O)N3CCC[C@H](N3)C(=O)OCC(C)(C)Cc3c(-c4cccnc4)n([C@H]4CC[C@H](C#N)C4)c4ccc(cc34)-c3coc(n3)[C@H]2N2CC3(CCCN3C)C2)[C@@H]1c1ccncn1 [Example A963] | < 1000 | < 1000 | greater decrease in cell viability |
| C[C@@H]1[C@H](C)[C@H]1C(=O)N[C@@H]1C(=O)N2CCC[C@H](N2)C(=O)OCC(C)(C)Cc2c(-c3cccnc3)n([C@@H]3CC[C@@H](C#N)C3)c3ccc(cc23)-c2csc(n2)[C@H]1N1CC2(CCCN2C)C1 [Example A965] | < 1000 | < 1000 | greater decrease in cell viability |
| C[C@@H]1[C@@H](C(=O)N[C@@H]2C(=O)N3CCC[C@H](N3)C(=O)OCC(C)(C)Cc3c(-c4cccnc4)n([C@@H]4CC[C@@H](C#N)C4)c4ccc(cc34)-c3csc(n3)[C@H]2N2CC3(CCCN3C)C2)[C@@H]1c1ccncn1 [Example A966] | < 1000 | < 1000 | greater decrease in cell viability |
| C[C@@H]1[C@@H](C(=O)N[C@@H]2C(=O)N3CCC[C@H](N3)C(=O)OCC(C)(C)Cc3c(-c4cccnc4)n([C@@H]4CC[C@H](C#N)C4)c4ccc(cc34)-c3csc(n3)[C@H]2N2CC3(COC3)C2)[C@@H]1c1ccncn1 [Example A989] | < 1000 | < 1000 | greater decrease in cell viability |
| C[C@@H]1[C@@H](C(=O)N[C@@H]2C(=O)N3CCC[C@H](N3)C(=O)OCC(C)(C)Cc3c(-c4cccnc4)n([C@H]4CC[C@H](C#N)C4)c4ccc(cc34)-c3csc(n3)[C@H]2N2CC3(COC3)C2)[C@@H]1c1ccncn1 [Example A996] | < 1000 | < 1000 | greater decrease in cell viability |
| C[C@@H]1[C@@H](C(=O)N[C@@H]2C(=O)N3CCC[C@H](N3)C(=O)OCC(C)(C)Cc3c(-c4cccnc4)n([C@H]4CC[C@H](C#N)C4)c4ccc(cc34)-c3coc(n3)[C@H]2N2CC3(COC3)C2)[C@@H]1c1ccncn1 [Example A998] | < 1000 | < 1000 | greater decrease in cell viability |
| C[C@@H]1[C@@H](C(=O)N[C@@H]2C(=O)N3CCC[C@H](N3)C(=O)OCC(C)(C)Cc3c(-c4cccnc4)n([C@@H]4CC[C@H](C#N)C4)c4ccc(cc34)-c3coc(n3)[C@H]2N2CC3(COC3)C2)[C@@H]1c1ccncn1 [Example A1000] | < 1000 | < 1000 | greater decrease in cell viability |
| CO[C@@H](C)c1ncccc1-c1c2c3cc(ccc3n1C1CN(C3CC3)C1)-c1coc(n1)[C@@H](N1CC3(CCCN3C)C1)[C@H](NC(=O)[C@H]1[C@H](C)[C@@H]1C)C(=O)N1N[C@H](C(=O)OCC(C)(C)C2)C2CC1C2 [Example A1020] | < 1000 | < 1000 | greater decrease in cell viability |

Continued, in another order:

| IC50 (K-RasG12V) [nM] | IC50 (K-RasG12A) [nM] | Compound | decrease in cell viability with respect to Capan-1 and/or NCI-H2009 versus wild-type KRAS (A375) (Capan-1 (K-Ras G12V)) |
| --- | --- | --- | --- |
| < 1000 | < 1000 | C[C@@H]1[C@@H](C(=O)N[C@@H]2C(=O)N3CCC[C@H](N3)C(=O)OCC(C)(C)Cc3c(-c4cccnc4)n([C@@H]4CC[C@@H](C#N)C4)c4ccc(cc34)-c3csc(n3)[C@H]2N2CC3(CCN3C)C2)[C@@H]1c1ccncn1 [Example A932] | greater decrease in cell viability |
| < 1000 | < 1000 | C[C@@H]1[C@H](C)[C@H]1C(=O)N[C@@H]1C(=O)N2CCC[C@H](N2)C(=O)OCC(C)(C)Cc2c(-c3cccnc3)n([C@H]3CC[C@H](C#N)C3)c3ccc(cc23)-c2csc(n2)[C@H]1N1CC2(CCCN2)C1 [Example A960] | greater decrease in cell viability |
| < 1000 | < 1000 | C[C@@H]1[C@H](C)[C@H]1C(=O)N[C@@H]1C(=O)N2CCC[C@H](N2)C(=O)OCC(C)(C)Cc2c(-c3cccnc3)n([C@H]3CC[C@H](C#N)C3)c3ccc(cc23)-c2coc(n2)[C@H]1N1CC2(CCCN2C)C1 [Example A962] | greater decrease in cell viability |
| < 1000 | < 1000 | C[C@@H]1[C@@H](C(=O)N[C@@H]2C(=O)N3CCC[C@H](N3)C(=O)OCC(C)(C)Cc3c(-c4cccnc4)n([C@@H]4CC[C@@H](C#N)C4)c4ccc(cc34)-c3coc(n3)[C@H]2N2CC3(CCCN3C)C2)[C@@H]1c1ccncn1 [Example A964] | greater decrease in cell viability |
| < 1000 | < 1000 | C[C@@H]1[C@H](C)[C@H]1C(=O)N[C@@H]1C(=O)N2CCC[C@H](N2)C(=O)OCC(C)(C)Cc2c(-c3cccnc3)n([C@H]3CC[C@@H](C#N)C3)c3ccc(cc23)-c2coc(n2)[C@H]1N1CC2(CCCN2)C1 [Example A980] | greater decrease in cell viability |
| < 1000 | < 1000 | C[C@@H]1[C@@H](C(=O)N[C@@H]2C(=O)N3CCC[C@H](N3)C(=O)OCC(C)(C)Cc3c(-c4cccnc4)n([C@H]4CC[C@@H](C#N)C4)c4ccc(cc34)-c3csc(n3)[C@H]2N2CC3(COC3)C2)[C@@H]1c1ccncn1 [Example A988] | greater decrease in cell viability |
| < 1000 | < 1000 | C[C@@H]1[C@@H](C(=O)N[C@@H]2C(=O)N3CCC[C@H](N3)C(=O)OCC(C)(C)Cc3c(-c4cccnc4)n([C@@H]4CC[C@@H](C#N)C4)c4ccc(cc34)-c3csc(n3)[C@H]2N2CC3(COC3)C2)[C@@H]1c1ccncn1 [Example A997] | greater decrease in cell viability |
| < 1000 | < 1000 | C[C@@H]1[C@H](C)[C@H]1C(=O)N[C@@H]1C(=O)N2CCC[C@H](N2)C(=O)OCC(C)(C)Cc2c(-c3cccnc3)n([C@@H]3CC[C@@H](C#N)C3)c3ccc(cc23)-c2csc(n2)[C@H]1N1CC2(COC2)C1 [Example A1010] | greater decrease in cell viability |
| < 1000 | < 1000 | CO[C@@H](C)c1ncccc1-c1c2c3cc(ccc3n1C1CN(C3CC3)C1)-c1coc(n1)[C@@H](N1CC3(CCCN3C)C1)[C@H](NC(=O)[C@@H]1[C@@H](C)[C@H]1c1ccncn1)C(=O)N1N[C@H](C(=O)OCC(C)(C)C2)C2CC1C2 [Example A1021] | greater decrease in cell viability |
| < 1000 | < 1000 | CO[C@@H](C)c1ncc(N2CCN(C3CC3)CC2)cc1-c1c2c3cc(ccc3n1CCOC1CCOCC1)-c1csc(n1)[C@@H](N1CC3(COC3)C1)[C@H](NC(=O)C1[C@@H](C)[C@H]1C(=O)N1CCOCC1)C(=O)N1CCC[C@H](N1)C(=O)OCC(C)(C)C2 (stereo partly drawn) [Example A1024] | greater decrease in cell viability |
